Data reported in patent US11485744B2, “High penetration prodrug compositions of antimicrobials and antimicrobial-related compounds” (priority 2009, dated 2022).

Settings: human, 10 %, pH 7.4
Protocol: Penetration rates of HPPs and their parent drugs through human skin were measured in vitro by modified Franz cells. A Franz cell had two chambers, the top sample chamber and the bottom receiving chamber. The human skin tissue (360-400 μm thick) that separated the top and the receiving chambers was isolated from the anterior or posterior thigh areas.
A test compound (2 mL, 10% in 0.2 M phosphate buffer, pH 7.4) was added to the sample chamber of a Franz cell. The receiving chamber contained 10 ml of 0.2 M phosphate buffer which was stirred at 600 rpm. The amount of the tested compound penetrating the skin was determined by high-performance liquid chromatography (HPLC) method.

Row | Structure (SMILES) | In vitro Penetration Rate (apparent flux), Parent compounds (sulfonamides, sulfones, quinolones) [mg/cm^2/h]
1 | O=C(O)c1cn(C2CC2)c2cc(N3CCNCC3)c(F)cc2c1=O [Ciprofloxacin, 1-cyclopropyl-6-fluoro-4-oxo-7-piperazin-1-yl-quinoline-3-carboxylic acid] | <0.001
2 | Nc1ccc(S(N)(=O)=O)cc1 [sulfanilamide, 4-aminobenzenesulfonamide, reference compound] | <0.001
